HELM strings list residues between dots; [ac] is acetyl, [am] amide, other brackets name non-standard units.
Assay: general procedure: Fmoc solid-phase peptide synthesis; Rink Amide Resin-ProTide (0.59 mmol/g)
Settings: whole synthesis, Analytical HPLC, Waters XSelect Peptide CSH C18, 220 nm, TFA salt
[1] = one disulfide bridge, sequence written open

Substance	final HPLC purity [1]	further results
Mpa-Tyr-Phe-Gln-Asn-Cys-Pro-Lys(X)a-Gly [SEQ ID NO. 21]; X is Gly and a is 7	–	final HPLC purity (one disulfide bridge): 95%
Mpa-Tyr-Phe-Gln-Asn-Cys-Pro-Lys(X)a-Gly [SEQ ID NO. 22]; X is Gly and a is 8	–	final HPLC purity (one disulfide bridge): 90%
Mpa-Tyr-Phe-Gln-Asn-Cys-Pro-Lys(X)a-Gly-NH2; (X)a = (Gly)6	96%	–
Mpa-Tyr-Phe-Gln-Asn-Cys-Pro-Lys(X)a-Gly-NH2; (X)a = (Gly)9	93%	–
Mpa-Tyr-Phe-Hgn-Asn-Cys-Pro-Dap-Gly-NH2	86%	–
Mpa-Tyr-Phe-Hgn-Asn-Cys-Pro-Lys(X)-Gly-NH2; X = Gly	92%	–
Mpa-Tyr-Phe-Hgn-Asn-Cys-Pro-Lys(X)a-Gly-NH2; (X)a = (Gly)2	94%	–
Mpa-Tyr-Phe-Hgn-Asn-Cys-Pro-Lys(X)a-Gly-NH2; (X)a = (Gly)3	95%	–
Mpa-Tyr-Phe-Hgn-Asn-Cys-Pro-Lys(X)a-Gly-NH2; (X)a = (Gly)4	91%	–
Mpa-Tyr-Phe-Hgn-Asn-Cys-Pro-Lys(X)a-Gly-NH2; (X)a = (Gly)5	93%	–
Mpa-Tyr-Phe-Hgn-Asn-Cys-Pro-Lys(X)a-Gly-NH2; (X)a = (Gly)6	90%	–
Mpa-Tyr-Phe-Hgn-Asn-Cys-Pro-Lys(X)a-Gly-NH2; (X)a = (Gly)7	89%	–
Mpa-Tyr-Phe-Hgn-Asn-Cys-Pro-Lys(X)a-Gly-NH2; (X)a = (Gly)8	87%	–
Mpa-Tyr-Phe-Hgn-Asn-Cys-Pro-Lys(X)a-Gly-NH2; (X)a = (Gly)9	86%	–
PEPTIDE1{[Mpa].Y.F.[Hgn].N.C.P.K.G.[am]}|PEPTIDE2{[Ado12]}$PEPTIDE1,PEPTIDE1,1:R3-6:R3|PEPTIDE1,PEPTIDE2,8:R3-1:R2$$$V2.0	–	final HPLC purity: 91%
PEPTIDE1{[Mpa].Y.F.[Hgn].N.C.P.[dK].G.[am]}$PEPTIDE1,PEPTIDE1,1:R3-6:R3$$$V2.0	–	final HPLC purity: 91%

— patent publication US12410211B2 (PharmaIN Corporation, priority 2020, dated 2025)
